Results as given in the supplement of paper PMC3334620.
In all, about 33,000 sequences were measured (“E-score (-0.5 to 0.5)”: median about -0.0014, highest 2% from about 0.25 on). The list shows a part of the results.

biological target: T1, Cad1 (UniProt P24813); assay: PBM E-score (8-mer binding enrichment) (E-score (-0.5 to 0.5)); higher = stronger / more preferred TF binding; details: protein concentration: 100 nM; construct: GST-full length
T1 sequence: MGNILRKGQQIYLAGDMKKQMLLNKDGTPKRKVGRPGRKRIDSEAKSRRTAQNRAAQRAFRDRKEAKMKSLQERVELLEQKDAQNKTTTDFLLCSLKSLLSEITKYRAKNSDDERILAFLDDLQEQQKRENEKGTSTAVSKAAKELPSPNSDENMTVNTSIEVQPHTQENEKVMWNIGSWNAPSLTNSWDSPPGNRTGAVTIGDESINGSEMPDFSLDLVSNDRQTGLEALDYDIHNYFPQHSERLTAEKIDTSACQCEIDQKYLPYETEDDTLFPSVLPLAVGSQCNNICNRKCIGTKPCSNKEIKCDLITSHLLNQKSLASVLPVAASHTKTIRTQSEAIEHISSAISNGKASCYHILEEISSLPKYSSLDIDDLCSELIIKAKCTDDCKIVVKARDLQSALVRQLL
Summary of the method: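 Each ungapped eight-base word and its reverse complement, pooled, received an E-score from the Universal PBM Analysis Suite. Underlying scans, normalised with masliner, recorded fluorescent anti-GST bound to GST-tagged yeast transcription factors. These were applied at about 100-200 nM to universal all-10-mer Agilent arrays double-stranded by primer extension.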

Row | Sequence | PBM E-score
1 | TGTATTAA | -0.00939
2 | AGCATTAA | 0.103
3 | CTGTGGTC | -0.0451
4 | CTATCAGA | -0.0588
5 | ACGCGCGC | 0.216
6 | AAACCCCA | -0.0881
7 | TCGAACCA | 0.00614
8 | CGTCGTCA | 0.0789
9 | CATCTGAA | -0.0273
10 | GAATCATC | -0.0502
11 | AGTCAGGC | 0.294
12 | GCAAGAGA | -0.0302
13 | GCTCGTAC | -0.0251
14 | GGCGGTTA | -0.0366
15 | ACCGATTC | -0.167
16 | CCGGAACG | -0.00669
17 | AAGGATCT | -0.233
18 | AGCAGGAA | 0.0471
19 | ATAGACTG | 0.125
20 | CGAAACTC | -0.0109
21 | ATCCGAAT | 0.24
22 | CTGTGATA | 0.0563
23 | CCAAGGTA | -0.0324
24 | GGCAGGTA | -0.106
25 | ATATTAGA | 0.197

Row | Sequence | PBM E-score
26 | GTGTTAAA | 0.123
27 | CCATGCCG | -0.0044
28 | AAAGACTC | -0.138
29 | AGAAACGC | -0.157
30 | ATGTCCGG | 0.148
31 | ACCGGCTA | 0.0442
32 | GGAAGCGA | -0.0787
33 | GCTTGACC | -0.178
34 | AAGGATAA | -0.0596
35 | AAAGGAGA | -0.256
36 | GTCTTCAC | -0.151
37 | GGGGCCTA | -0.371
38 | CTATCAAG | 0.0773
39 | GTAGTAAA | 0.0742
40 | ACAACTAC | -0.0111
41 | ATCCGCAG | 0.183
42 | CGCTATAG | -0.102
43 | GCACGTAA | -0.0724
44 | GTCTTCCA | -0.149
45 | ACATAATG | 0.172
46 | ACGATAAT | 0.159
47 | ATAATTAC | 0.295
48 | CTGCGAAC | -0.0614
49 | AAGGACAG | 0.0368
50 | GTTAGGTA | 0.0174

Row | Sequence | PBM E-score
51 | ATATCGTA | 0.0481
52 | GCGACGGA | 0.0268
53 | ACAGGAGG | -0.311
54 | ATAGAGCC | -0.106
55 | AGATATAC | -0.00683
56 | AATGGAGG | -0.211
57 | GTCTGAGA | -0.0574
58 | GACTTCCA | -0.0194
59 | CATCTCAA | -0.112
60 | CTCGAAGA | -0.132
61 | ATCTAGAC | 0.0045
62 | TGACCGCA | 0.0752
63 | CAGAATAC | 0.0636
64 | AAATCTCA | 0.158
65 | AATGTAAC | 0.0359
66 | CCCCGCAC | -0.0934
67 | AGGGTCAC | -0.275
68 | CCAATCCG | 0.0527
69 | GAGGGTTA | -0.116
70 | TAAATGTA | 0.176
71 | AGCAAATC | 0.11
72 | GGAGAGGA | -0.292
73 | AAAAAGTT | 0.00711
74 | GGACATCA | 0.0708
75 | AGATGTTA | -0.167

Row | Sequence | PBM E-score
76 | TGAATTCA | 0.231
77 | CCACGTCA | 0.0919
78 | GATCGTGA | -0.139
79 | CAGATACG | -0.0246
80 | AAACGCCT | -0.15
81 | AGATATGA | 0.222
82 | CGCTCAGC | -0.0359
83 | GAAATGTA | 0.038
84 | CGTCTGCA | 0.0107
85 | CGAGTGAA | -0.00851
86 | GGCGAGAA | 0.0201
87 | CCTTGACC | -0.11
88 | AGTCCGTG | -0.121
89 | CTGAACTA | -0.0623
90 | CGAGCGAA | 0.0991
91 | CGTCGTAG | -0.0885
92 | TTGCCCAA | -0.0406
93 | GTCGAGAC | 0.0826
94 | AATTGCAG | 0.0363
95 | ACGGCACG | -0.0131
96 | TACTCACA | 0.0875
97 | CGTATGTA | -0.105
98 | AACTCATG | 0.158
99 | GAGGGTCC | -0.337
100 | GGCGGTCA | -0.318

Row | Sequence | PBM E-score
101 | TAGTTAAA | 0.108
102 | GCGCCGAA | 0.11
103 | CATGATCC | -0.0795
104 | ACCCAGCC | -0.142
105 | CAGAGCCC | -0.103
106 | CCGTGGGA | -0.217
107 | CCTACCTA | -0.0464
108 | AAAGCCGA | -0.0889
109 | ACGTCATC | 0.0219
110 | GCCGACCC | -0.238
111 | ACTGTTGC | 0.0414
112 | AGCTAAGA | 0.0205
113 | GAGTCAAA | -0.0957
114 | CCATGGGC | -0.104
115 | CATTCTCG | -0.0865
116 | GGTGTGAC | -0.263
117 | CAACACTC | 0.0612
118 | ATTGATAC | 0.118
119 | CACATAAA | 0.162
120 | CGCCCATA | -0.0511
121 | TAGTCAGA | 0.148
122 | GCCGTGTA | -0.0267
123 | TAGCAAAA | 0.143
124 | GTGACCAC | -0.238
125 | CTACCATA | -0.0478

Row | Sequence | PBM E-score
126 | CCTAGACC | -0.179
127 | AACCAGGA | -0.0101
128 | CTATAGAG | -0.134
129 | CCTTGGTC | -0.145
130 | CGCCACGC | -0.0119
131 | AAAAGCTC | -0.0203
132 | CGTGTAAA | -0.0103
133 | CCCGGTAA | -0.056
134 | ACTACTAA | 0.158
135 | AATCTTTA | -0.0229
136 | TCCCTGAA | 0.0754
137 | CTAGTCTA | -0.173
138 | AAATTCGT | 0.169
139 | AACTCTAT | -0.0631
140 | ACCAGTTG | -0.0247
141 | AATACGGT | 0.0436
142 | GAACTCTC | -0.0666
143 | AGAAGGCG | -0.0454
144 | CTGGATCC | -0.00135
145 | GGGTGGGA | -0.0834
146 | GATCCTTA | -0.0932
147 | ATTACTTG | 0.125
148 | ATGCGCTG | 0.00503
149 | CACCAAAC | 0.181
150 | ACACGCAT | -0.0402

7 records picked at random from those above:
Row | Sequence | PBM E-score
150 | ACACGCAT | -0.0402
136 | TCCCTGAA | 0.0754
126 | CCTAGACC | -0.179
135 | AATCTTTA | -0.0229
128 | CTATAGAG | -0.134
137 | CTAGTCTA | -0.173
130 | CGCCACGC | -0.0119

Later entries.

Row | Sequence | PBM E-score
151 | CCGCCGTA | -0.0406
152 | CTGTGACC | -0.108
153 | GCGCCTAC | 0.0741
154 | CCCGTGGA | -0.163
155 | GAGGAACA | 0.167
156 | CCCCCCAA | -0.442
157 | ATCGGAGA | -0.0793
158 | GAACGGCC | -0.016
159 | AACTAGCT | 0.0207
160 | ATGCGTTC | 0.113
161 | AATCTGTC | 0.0801
162 | GTGAACAA | -0.011
163 | ACGATACA | -0.0646
164 | ACTACCCC | -0.231
165 | AAACAGGG | 0.0116
166 | AAGTCCTA | -0.103
167 | ACCCCGAA | 0.0309
168 | AAAGACGC | -0.00428
169 | ACGCTTGC | 0.0347
170 | AGTGCTAG | -0.11
171 | TATCTCCA | 0.0394
172 | AGAGGACG | 0.0374
